Assay results reported in patent US10376540B2, “Tungsten (VI) salts used to treat infertility, for stimulating fertility and normal reproduction in a non-diabetic female mammal, and for improving the effectiveness of assisted reproduction techniques” (OXOLIFE, S.L., priority 2014, dated 2019).
Where “and” joins values, the source holds several entries; their conditions need not be identical. Identical values can stand only once.

Assay: Body weight study
Format: in vivo, mice
Conditions: for Body weight, Average: average of 6 mice; for Body weight: individual mice, dihydrate

O.O.[Na+].[Na+].[O]=[W](=[O])([O-])[O-] [sodium tungstate, sodium tungstate dihydrate]
Body weight, Average (Day 2): 17.33 g
Body weight (Day 2, 2 mg/ml in drinking water): 22.9 g and 14.84 g and 18.98 g and 17.01 g and 14.18 g and 16.04 g
Body weight, Average (Day 5): 16.97 g
Body weight (Day 5): 22.61 g and 14.89 g and 18.2 g and 16.61 g and 13.79 g and 15.72 g
Body weight, Average (Day 7): 16.84 g
Body weight (Day 7): 22.42 g and 15.07 g and 17.81 g and 16.35 g and 13.74 g and 15.66 g
Body weight, Average (Day 9): 17.35 g
Body weight (Day 9): 22.85 g and 15.56 g and 17.9 g and 16.89 g and 14.5 g and 16.39 g
Body weight, Average (Day 12): 17.72 g
Body weight (Day 12): 23.15 g and 15.91 g and 18.24 g and 17.19 g and 14.92 g and 16.89 g
